Measured data: PubChem BioAssay AID1224828 (NIAID, 2016)
Purpose: 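Regulators linking TLR4 signalling to p65 nuclear translocation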 (primary screen). Cells: mouse RAW264.7 G9 macrophage reporter cells (GFP-p65, Tnf promoter-mCherry). Knock-down reagent: siRNA pool against mouse genes, 100 nM. Duration: 2 days siRNA transfection, then 40 min LPS before fixation. Treatment: LPS (Salmonella minnesota R595) at 10 ng/ml. Measured: 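Microscopy ratio of nuclear to perinuclear-ring GFP-p65 signal, scaled to the plate median; gene score is the average of two replicate robust z-scores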. Direction: p65 translocation robust z-score: higher = more nuclear NF-kappaB p65 after LPS than the plate median; nuclear/cytoplasmic p65 ratio: higher = more nuclear NF-kappaB p65. Rule for the call: 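Called active when z exceeds 3.3 or falls under -1.56 (median of Tlr4 controls), giving activity score of at least 50; no calls for control wells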. Calls: active = hit (p65 shift raised or lowered); inactive = no clear change.
This is a random part of about 17,000 reagents tested. Over the whole deposit, 762 (4.5%) are marked active. 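Active calls include both raised and lowered p65 entry, mostly lowered; wells with fewer than 50 cells lack a z-score.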 Raw values vary from plate to plate and are shown uncorrected. Entries without a mark were called inactive.

Tgfa (transforming growth factor alpha) | p65 translocation robust z-score = 0.56; nuclear/cytoplasmic p65 ratio, rep 1 = 1.49; nuclear/cytoplasmic p65 ratio, rep 2 = 1.7; low cell count flag = enough cells to score
Rad18 (RAD18 E3 ubiquitin protein ligase) | p65 translocation robust z-score = 2.15; nuclear/cytoplasmic p65 ratio, rep 1 = 1.82; nuclear/cytoplasmic p65 ratio, rep 2 = 1.82; low cell count flag = enough cells to score
Prm3 (protamine 3) | p65 translocation robust z-score = -1.07; nuclear/cytoplasmic p65 ratio, rep 1 = 1.24; nuclear/cytoplasmic p65 ratio, rep 2 = 1.09; low cell count flag = enough cells to score
Lrr1 (leucine rich repeat protein 1) | p65 translocation robust z-score = -0.33; nuclear/cytoplasmic p65 ratio, rep 1 = 1.37; nuclear/cytoplasmic p65 ratio, rep 2 = 1.15; low cell count flag = enough cells to score
Zfp846 (zinc finger protein 846) | nuclear/cytoplasmic p65 ratio, rep 1 = 1.31; nuclear/cytoplasmic p65 ratio, rep 2 = 1.17; low cell count flag = fewer than 50 cells per well; well left out of scoring
Map3k9 (mitogen-activated protein kinase kinase kinase 9) | p65 translocation robust z-score = 1.26; nuclear/cytoplasmic p65 ratio, rep 1 = 1.46; nuclear/cytoplasmic p65 ratio, rep 2 = 1.53; low cell count flag = enough cells to score
Svs5 (seminal vesicle secretory protein 5) | p65 translocation robust z-score = -0.58; nuclear/cytoplasmic p65 ratio, rep 1 = 1.37; nuclear/cytoplasmic p65 ratio, rep 2 = 1.14; low cell count flag = enough cells to score
Rnf146 (ring finger protein 146) | p65 translocation robust z-score = -1.28; nuclear/cytoplasmic p65 ratio, rep 1 = 1.23; nuclear/cytoplasmic p65 ratio, rep 2 = 1.29; low cell count flag = enough cells to score
Arpc3 (actin related protein 2/3 complex, subunit 3) | p65 translocation robust z-score = 0.21; nuclear/cytoplasmic p65 ratio, rep 1 = 1.66; nuclear/cytoplasmic p65 ratio, rep 2 = 1.64; low cell count flag = enough cells to score

Continued; the last 3 above are carried over.
Svs5 (seminal vesicle secretory protein 5) | p65 translocation robust z-score = -0.58; nuclear/cytoplasmic p65 ratio, rep 1 = 1.37; nuclear/cytoplasmic p65 ratio, rep 2 = 1.14; low cell count flag = enough cells to score
Rnf146 (ring finger protein 146) | p65 translocation robust z-score = -1.28; nuclear/cytoplasmic p65 ratio, rep 1 = 1.23; nuclear/cytoplasmic p65 ratio, rep 2 = 1.29; low cell count flag = enough cells to score
Arpc3 (actin related protein 2/3 complex, subunit 3) | p65 translocation robust z-score = 0.21; nuclear/cytoplasmic p65 ratio, rep 1 = 1.66; nuclear/cytoplasmic p65 ratio, rep 2 = 1.64; low cell count flag = enough cells to score
Unc5a (unc-5 netrin receptor A) | nuclear/cytoplasmic p65 ratio, rep 1 = 1.3; nuclear/cytoplasmic p65 ratio, rep 2 = 1.28; low cell count flag = fewer than 50 cells per well; well left out of scoring
9930022D16Rik (RIKEN cDNA 9930022D16 gene) | p65 translocation robust z-score = -0.83; nuclear/cytoplasmic p65 ratio, rep 1 = 1.27; nuclear/cytoplasmic p65 ratio, rep 2 = 1.47; low cell count flag = enough cells to score
Dnah2 (dynein, axonemal, heavy chain 2) | p65 translocation robust z-score = -0.14; nuclear/cytoplasmic p65 ratio, rep 1 = 1.48; nuclear/cytoplasmic p65 ratio, rep 2 = 1.6; low cell count flag = enough cells to score
Cyfip2 (cytoplasmic FMR1 interacting protein 2) | p65 translocation robust z-score = 0.09; nuclear/cytoplasmic p65 ratio, rep 1 = 1.51; nuclear/cytoplasmic p65 ratio, rep 2 = 1.37; low cell count flag = enough cells to score
Zfp276 (zinc finger protein (C2H2 type) 276) | p65 translocation robust z-score = -0.75; nuclear/cytoplasmic p65 ratio, rep 1 = 1.28; nuclear/cytoplasmic p65 ratio, rep 2 = 1.19; low cell count flag = enough cells to score
Fibin (fin bud initiation factor homolog (zebrafish)) | p65 translocation robust z-score = 0.29; nuclear/cytoplasmic p65 ratio, rep 1 = 1.58; nuclear/cytoplasmic p65 ratio, rep 2 = 1.49; low cell count flag = enough cells to score
Cyp4a12a (cytochrome P450, family 4, subfamily a, polypeptide 12a) | p65 translocation robust z-score = 0.2; nuclear/cytoplasmic p65 ratio, rep 1 = 1.72; nuclear/cytoplasmic p65 ratio, rep 2 = 1.6; low cell count flag = enough cells to score
Mbl1 (mannose-binding lectin (protein A) 1) | p65 translocation robust z-score = 0.82; nuclear/cytoplasmic p65 ratio, rep 1 = 1.84; nuclear/cytoplasmic p65 ratio, rep 2 = 1.67; low cell count flag = enough cells to score
Zeb2 (zinc finger E-box binding homeobox 2) | p65 translocation robust z-score = -1.25; nuclear/cytoplasmic p65 ratio, rep 1 = 1.38; nuclear/cytoplasmic p65 ratio, rep 2 = 1.29; low cell count flag = enough cells to score
Eme1 (essential meiotic structure-specific endonuclease 1) | p65 translocation robust z-score = 0.19; nuclear/cytoplasmic p65 ratio, rep 1 = 1.51; nuclear/cytoplasmic p65 ratio, rep 2 = 1.51; low cell count flag = enough cells to score
Ctdsp2 (CTD small phosphatase 2) | p65 translocation robust z-score = -0.74; nuclear/cytoplasmic p65 ratio, rep 1 = 1.57; nuclear/cytoplasmic p65 ratio, rep 2 = 1.54; low cell count flag = enough cells to score
Ppp1r10 (protein phosphatase 1, regulatory subunit 10) | p65 translocation robust z-score = -1.38; nuclear/cytoplasmic p65 ratio, rep 1 = 1.28; nuclear/cytoplasmic p65 ratio, rep 2 = 1.25; low cell count flag = enough cells to score
